According to the supplement of paper PMC12067093, “Discovery and optimisation of a covalent ligand for TRIM25 and its application to targeted protein ubiquitination” (Chemical Science, 2025):
Some of the results follow.

Chains of the proteins cited; added tags and fusions are not shown. Lines headed by an entry give the natural chain unless they say otherwise; changes in a name come on top.
UniProt Q9H2Y7: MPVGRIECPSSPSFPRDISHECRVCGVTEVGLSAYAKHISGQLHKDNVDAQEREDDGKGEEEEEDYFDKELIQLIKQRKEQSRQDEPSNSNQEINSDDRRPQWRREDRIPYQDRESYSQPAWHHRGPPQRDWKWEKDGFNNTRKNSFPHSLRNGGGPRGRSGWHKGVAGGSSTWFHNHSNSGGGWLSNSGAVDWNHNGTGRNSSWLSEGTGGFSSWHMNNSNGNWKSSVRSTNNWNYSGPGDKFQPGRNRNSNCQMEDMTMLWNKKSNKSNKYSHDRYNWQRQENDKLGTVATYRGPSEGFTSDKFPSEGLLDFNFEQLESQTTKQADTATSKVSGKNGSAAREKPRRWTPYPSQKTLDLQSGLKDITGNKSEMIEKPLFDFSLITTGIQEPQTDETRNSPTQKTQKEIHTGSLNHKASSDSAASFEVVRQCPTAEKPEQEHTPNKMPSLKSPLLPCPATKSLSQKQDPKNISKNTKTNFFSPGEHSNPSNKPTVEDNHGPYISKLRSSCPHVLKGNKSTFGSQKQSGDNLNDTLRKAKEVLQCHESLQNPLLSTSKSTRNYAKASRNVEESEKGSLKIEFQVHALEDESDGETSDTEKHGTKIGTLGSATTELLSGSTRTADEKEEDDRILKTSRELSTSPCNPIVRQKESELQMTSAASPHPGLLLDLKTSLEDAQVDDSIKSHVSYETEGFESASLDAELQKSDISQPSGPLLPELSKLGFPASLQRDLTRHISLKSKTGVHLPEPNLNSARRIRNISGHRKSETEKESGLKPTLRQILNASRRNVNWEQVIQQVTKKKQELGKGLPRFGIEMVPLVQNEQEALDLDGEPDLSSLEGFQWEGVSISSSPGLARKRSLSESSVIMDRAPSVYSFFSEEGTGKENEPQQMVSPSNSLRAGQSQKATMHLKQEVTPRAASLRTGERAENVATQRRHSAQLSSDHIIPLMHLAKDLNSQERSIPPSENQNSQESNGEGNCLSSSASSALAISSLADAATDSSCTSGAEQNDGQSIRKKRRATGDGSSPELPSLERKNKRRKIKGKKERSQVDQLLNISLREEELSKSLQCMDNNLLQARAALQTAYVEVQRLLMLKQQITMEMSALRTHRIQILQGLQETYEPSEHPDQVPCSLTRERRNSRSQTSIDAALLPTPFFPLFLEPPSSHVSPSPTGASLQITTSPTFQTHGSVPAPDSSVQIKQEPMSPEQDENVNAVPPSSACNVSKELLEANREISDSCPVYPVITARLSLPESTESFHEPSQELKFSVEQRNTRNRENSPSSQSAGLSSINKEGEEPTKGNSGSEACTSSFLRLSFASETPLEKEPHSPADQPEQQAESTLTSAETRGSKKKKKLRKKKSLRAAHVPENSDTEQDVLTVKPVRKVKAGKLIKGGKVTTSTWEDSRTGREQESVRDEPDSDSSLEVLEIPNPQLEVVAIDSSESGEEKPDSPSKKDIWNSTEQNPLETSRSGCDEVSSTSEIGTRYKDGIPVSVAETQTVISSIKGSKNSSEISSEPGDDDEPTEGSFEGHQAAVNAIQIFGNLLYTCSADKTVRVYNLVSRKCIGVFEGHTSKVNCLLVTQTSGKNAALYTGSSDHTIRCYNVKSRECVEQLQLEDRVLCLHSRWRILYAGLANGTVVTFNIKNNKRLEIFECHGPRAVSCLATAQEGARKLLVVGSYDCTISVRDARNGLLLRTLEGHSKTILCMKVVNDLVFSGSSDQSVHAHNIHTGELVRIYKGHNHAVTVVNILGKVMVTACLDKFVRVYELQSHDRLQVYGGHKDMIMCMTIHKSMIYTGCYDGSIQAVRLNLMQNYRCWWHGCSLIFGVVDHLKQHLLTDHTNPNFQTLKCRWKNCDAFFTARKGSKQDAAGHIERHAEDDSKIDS
UniProt Q9Y3S2: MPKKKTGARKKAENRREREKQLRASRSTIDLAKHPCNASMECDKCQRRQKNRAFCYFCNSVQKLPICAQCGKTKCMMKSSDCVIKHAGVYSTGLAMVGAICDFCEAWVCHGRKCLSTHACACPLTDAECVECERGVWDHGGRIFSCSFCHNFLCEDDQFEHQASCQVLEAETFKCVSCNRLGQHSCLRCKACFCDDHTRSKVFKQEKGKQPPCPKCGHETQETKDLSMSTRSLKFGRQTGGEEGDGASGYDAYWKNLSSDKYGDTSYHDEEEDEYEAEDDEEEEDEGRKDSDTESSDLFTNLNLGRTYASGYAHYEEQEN
UniProt Q92610: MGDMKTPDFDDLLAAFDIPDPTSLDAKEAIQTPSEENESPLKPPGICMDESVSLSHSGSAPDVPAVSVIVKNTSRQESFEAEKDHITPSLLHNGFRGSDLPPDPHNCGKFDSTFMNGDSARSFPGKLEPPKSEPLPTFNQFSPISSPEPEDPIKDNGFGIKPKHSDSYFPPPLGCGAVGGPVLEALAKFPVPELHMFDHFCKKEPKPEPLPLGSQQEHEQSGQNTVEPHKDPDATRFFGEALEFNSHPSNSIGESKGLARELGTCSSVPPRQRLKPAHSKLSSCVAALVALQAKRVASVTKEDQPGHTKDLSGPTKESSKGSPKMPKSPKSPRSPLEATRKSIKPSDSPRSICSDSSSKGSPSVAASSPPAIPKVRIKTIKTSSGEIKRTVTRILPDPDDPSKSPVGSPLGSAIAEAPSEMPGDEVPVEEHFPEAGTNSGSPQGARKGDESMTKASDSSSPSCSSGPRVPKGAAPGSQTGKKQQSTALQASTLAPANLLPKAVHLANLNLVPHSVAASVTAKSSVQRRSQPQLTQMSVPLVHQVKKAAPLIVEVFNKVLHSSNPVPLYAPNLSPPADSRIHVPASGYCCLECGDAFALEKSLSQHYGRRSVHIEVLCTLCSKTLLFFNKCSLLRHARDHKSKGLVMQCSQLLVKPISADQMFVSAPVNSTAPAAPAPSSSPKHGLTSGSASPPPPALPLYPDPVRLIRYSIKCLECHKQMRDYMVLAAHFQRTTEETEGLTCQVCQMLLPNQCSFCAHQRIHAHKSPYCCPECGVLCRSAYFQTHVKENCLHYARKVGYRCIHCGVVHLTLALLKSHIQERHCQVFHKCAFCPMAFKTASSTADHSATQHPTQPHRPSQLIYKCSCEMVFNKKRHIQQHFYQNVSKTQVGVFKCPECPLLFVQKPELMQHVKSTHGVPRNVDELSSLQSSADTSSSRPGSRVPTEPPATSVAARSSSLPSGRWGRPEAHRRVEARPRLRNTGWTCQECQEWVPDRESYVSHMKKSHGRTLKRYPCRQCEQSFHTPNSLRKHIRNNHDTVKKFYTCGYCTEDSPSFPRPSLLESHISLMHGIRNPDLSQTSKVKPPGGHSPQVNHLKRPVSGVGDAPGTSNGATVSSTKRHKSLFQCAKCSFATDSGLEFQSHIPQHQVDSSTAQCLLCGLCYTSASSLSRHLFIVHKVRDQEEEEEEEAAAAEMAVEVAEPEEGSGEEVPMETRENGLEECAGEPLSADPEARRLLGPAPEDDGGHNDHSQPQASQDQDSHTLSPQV
UniProt Q14966: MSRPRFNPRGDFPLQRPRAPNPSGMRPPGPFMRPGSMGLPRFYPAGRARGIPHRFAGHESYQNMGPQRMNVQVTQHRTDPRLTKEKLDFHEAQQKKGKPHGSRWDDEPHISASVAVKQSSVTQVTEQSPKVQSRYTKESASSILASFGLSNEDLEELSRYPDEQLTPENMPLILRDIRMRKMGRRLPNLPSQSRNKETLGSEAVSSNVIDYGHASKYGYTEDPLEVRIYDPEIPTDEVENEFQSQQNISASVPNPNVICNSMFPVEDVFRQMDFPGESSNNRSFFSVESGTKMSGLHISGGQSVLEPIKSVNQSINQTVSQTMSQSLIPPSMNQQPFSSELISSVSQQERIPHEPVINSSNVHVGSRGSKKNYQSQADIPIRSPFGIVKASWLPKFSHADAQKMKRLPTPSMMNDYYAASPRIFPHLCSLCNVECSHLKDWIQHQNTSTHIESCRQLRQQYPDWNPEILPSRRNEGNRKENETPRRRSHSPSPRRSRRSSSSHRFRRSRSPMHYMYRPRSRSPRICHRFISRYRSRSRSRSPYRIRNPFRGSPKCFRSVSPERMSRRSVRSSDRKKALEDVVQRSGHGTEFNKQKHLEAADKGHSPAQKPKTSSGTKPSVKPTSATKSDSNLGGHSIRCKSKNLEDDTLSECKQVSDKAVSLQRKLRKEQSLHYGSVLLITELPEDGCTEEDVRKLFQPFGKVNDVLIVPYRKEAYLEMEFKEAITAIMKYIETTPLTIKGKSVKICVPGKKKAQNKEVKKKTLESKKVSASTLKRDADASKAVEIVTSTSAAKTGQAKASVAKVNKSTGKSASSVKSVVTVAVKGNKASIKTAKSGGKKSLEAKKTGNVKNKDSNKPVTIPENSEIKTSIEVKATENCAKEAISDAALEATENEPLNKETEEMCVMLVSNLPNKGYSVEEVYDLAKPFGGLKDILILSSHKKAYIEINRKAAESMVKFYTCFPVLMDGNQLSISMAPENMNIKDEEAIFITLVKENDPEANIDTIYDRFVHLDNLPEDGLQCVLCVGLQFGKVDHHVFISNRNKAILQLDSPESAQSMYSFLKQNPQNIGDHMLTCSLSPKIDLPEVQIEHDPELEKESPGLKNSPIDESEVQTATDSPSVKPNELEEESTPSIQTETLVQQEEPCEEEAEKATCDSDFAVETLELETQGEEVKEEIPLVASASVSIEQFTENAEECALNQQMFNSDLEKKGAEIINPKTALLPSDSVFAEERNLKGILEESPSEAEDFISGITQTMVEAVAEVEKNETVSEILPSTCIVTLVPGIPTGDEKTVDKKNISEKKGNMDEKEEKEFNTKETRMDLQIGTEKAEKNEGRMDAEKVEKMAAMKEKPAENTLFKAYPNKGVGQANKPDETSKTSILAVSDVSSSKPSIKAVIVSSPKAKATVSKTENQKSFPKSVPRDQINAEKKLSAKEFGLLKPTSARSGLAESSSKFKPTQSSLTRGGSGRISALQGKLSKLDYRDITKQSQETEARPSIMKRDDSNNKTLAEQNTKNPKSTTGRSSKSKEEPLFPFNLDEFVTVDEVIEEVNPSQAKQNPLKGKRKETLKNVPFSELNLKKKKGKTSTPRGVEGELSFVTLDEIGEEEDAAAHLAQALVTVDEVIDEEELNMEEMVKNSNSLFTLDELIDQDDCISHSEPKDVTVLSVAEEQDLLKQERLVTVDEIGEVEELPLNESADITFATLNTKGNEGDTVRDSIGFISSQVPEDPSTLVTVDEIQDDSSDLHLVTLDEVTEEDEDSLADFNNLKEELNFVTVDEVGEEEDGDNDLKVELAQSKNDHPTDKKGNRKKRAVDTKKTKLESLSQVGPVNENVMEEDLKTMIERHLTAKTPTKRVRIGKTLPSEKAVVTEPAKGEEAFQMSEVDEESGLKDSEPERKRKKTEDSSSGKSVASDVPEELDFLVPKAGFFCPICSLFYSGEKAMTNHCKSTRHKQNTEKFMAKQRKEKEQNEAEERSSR
UniProt P47974: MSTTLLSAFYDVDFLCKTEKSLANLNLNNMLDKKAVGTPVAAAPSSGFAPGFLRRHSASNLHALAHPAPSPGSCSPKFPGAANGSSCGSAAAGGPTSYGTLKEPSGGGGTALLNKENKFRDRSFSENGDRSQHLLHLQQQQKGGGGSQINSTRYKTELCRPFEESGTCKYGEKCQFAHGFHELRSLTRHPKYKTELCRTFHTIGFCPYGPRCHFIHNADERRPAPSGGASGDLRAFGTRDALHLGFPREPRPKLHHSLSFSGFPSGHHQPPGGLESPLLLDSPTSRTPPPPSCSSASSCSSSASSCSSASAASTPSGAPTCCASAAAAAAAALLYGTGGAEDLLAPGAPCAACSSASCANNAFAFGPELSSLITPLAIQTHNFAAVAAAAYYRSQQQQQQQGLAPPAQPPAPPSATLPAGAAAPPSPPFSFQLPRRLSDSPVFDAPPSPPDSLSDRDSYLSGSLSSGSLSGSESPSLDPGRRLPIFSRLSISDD
UniProt Q9UK33: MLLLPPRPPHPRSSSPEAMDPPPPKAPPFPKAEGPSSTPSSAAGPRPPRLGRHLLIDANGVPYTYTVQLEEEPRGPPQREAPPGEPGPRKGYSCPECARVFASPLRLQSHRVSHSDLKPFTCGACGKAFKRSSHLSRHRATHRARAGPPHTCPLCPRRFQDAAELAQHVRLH
UniProt Q969S3: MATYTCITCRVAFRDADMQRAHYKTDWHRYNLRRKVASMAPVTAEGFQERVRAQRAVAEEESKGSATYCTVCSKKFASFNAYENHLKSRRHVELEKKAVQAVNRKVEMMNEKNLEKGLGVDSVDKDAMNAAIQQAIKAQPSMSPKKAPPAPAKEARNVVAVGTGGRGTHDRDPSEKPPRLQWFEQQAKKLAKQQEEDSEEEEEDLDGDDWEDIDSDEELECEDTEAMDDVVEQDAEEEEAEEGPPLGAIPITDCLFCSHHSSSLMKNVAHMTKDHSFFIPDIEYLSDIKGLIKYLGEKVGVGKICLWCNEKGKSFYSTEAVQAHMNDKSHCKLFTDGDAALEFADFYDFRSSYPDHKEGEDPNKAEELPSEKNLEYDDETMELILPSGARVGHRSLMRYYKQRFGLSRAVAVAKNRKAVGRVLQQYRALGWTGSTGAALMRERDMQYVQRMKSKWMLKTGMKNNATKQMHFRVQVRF

Compound: CC1Cc2ccccc2N1C(=O)C1CCCN(C1)C(=O)CCl (mixture of isomers) [TRIM25 ligand 11 (diastereomer mixture)]
Test: probe-labelled cysteine peptide fold change vs DMSO (competition) (log2 fold change); higher = less target engagement (more negative = stronger competition)
Details: THP-1, incubation time: 4 h
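Further: competitive chemoproteomic profiling in live THP-1 cells with an iodoacetamide desthiobiotin (IA-DTB) probe, comparing probe-labelled peptide intensities in compound-treated cells against DMSO-treated controls.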

Target	probe-labelled cysteine peptide fold change (10 µM)	probe-labelled cysteine peptide fold change (50 µM)
ZFAT_Q9P243_392_EALDELCLMTR (UniProt Q9P243)	0.138	-0.0477
ZNF512_Q96ME7_171_GSVSCPTCQAVGR (UniProt Q96ME7)	-0.000345	-0.0111
ZNF106_Q9H2Y7_457_SPLLPCPATK (UniProt Q9H2Y7)	0.0293	-0.241
ZNF579_Q8NAF0_77_LSHSGLRPHACPLCPK (UniProt Q8NAF0)	-0.134	-0.0032
ZFYVE16_Q7Z3T8_292_EEVDVAVITAAECLK (UniProt Q7Z3T8)	0.00496	-0.17
ZNF670_Q9BS34_339_THTGVKPYGCK (UniProt Q9BS34)	-0.11	-0.0364
ZNF124_Q15973_292+295_THIAQKPYVCNNCGK (UniProt Q15973)	-0.00504	-0.315
ZNF330_Q9Y3S2_192+194_ACFCDDHTR (UniProt Q9Y3S2)	0.0999	-0.0251
ZNF592_Q92610_201_FPVPELHMFDHFCK (UniProt Q92610)	-0.0756	-0.198
ZMIZ2_Q8NF64_564_LLPAEHCITK (UniProt Q8NF64)	-0.0364	-0.0924
ZNF644_Q9H582_588_SATYICK (UniProt Q9H582)	0.135	0.132
ZNF638_Q14966_652_NLEDDTLSECK (UniProt Q14966)	-0.0183	-0.243
ZFC3H1_O60293_1864_FCSVMPANSGLALR (UniProt O60293)	0.1	0.0553
ZNF330_Q9Y3S2_132_CLSTHACACPLTDAECVECER (UniProt Q9Y3S2)	-0.0916	-0.106
ZNF189_O75820_610_TQETHECDACGEAFNCR (UniProt O75820)	0.0654	-0.152
ZNF330_Q9Y3S2_109_HAGVYSTGLAMVGAICDFCEAWVCHGR (UniProt Q9Y3S2)	0.327	-0.0537
ZNF428_Q96B54_111_SPLGEAPPGTPPCR (UniProt Q96B54)	-0.138	-0.32
ZMYM3_Q14202_1197_VEEEHLWECK (UniProt Q14202)	0.135	0.175
ZNF143_P52747_299+304_CSEDNCTK (UniProt P52747)	0.23	0.244
ZFR_Q96KR1_387+391_CELCDVSCTGADAYAAHIR (UniProt Q96KR1)	0.278	-0.0133
ZNF280D_Q6N043_827_NIVSCDSNIGADKVEK (UniProt Q6N043)	-0.321	-0.255
ZNF106_Q9H2Y7_1653_RLEIFECHGPR (UniProt Q9H2Y7)	0.0782	0.0992
ZNF292_O60281_2260_CDCEGCDR (UniProt O60281)	0.0787	0.0706
ZFAND3_Q9H8U3_192_LPEQHDCTFDHMGR (UniProt Q9H8U3)	-0.153	-0.21

Target	probe-labelled cysteine peptide fold change (10 µM)	probe-labelled cysteine peptide fold change (50 µM)
ZFYVE21_Q9BQ24_138_VLLSGATFLVTFGNSEKPETMTCR (UniProt Q9BQ24)	-0.179	-0.169
ZFP36L2_P47974_174_CQFAHGFHELR (UniProt P47974)	0.0485	-0.124
ZNF330_Q9Y3S2_70_LPICAQCGK (UniProt Q9Y3S2)	-0.033	0.0902
ZFR_Q96KR1_899_CLDALAALR (UniProt Q96KR1)	-0.107	0.0232
ZNF580_Q9UK33_122+125_VSHSDLKPFTCGACGK (UniProt Q9UK33)	-0.0849	-0.0216
ZNF592_Q92610_463_ASDSSSPSCSSGPR (UniProt Q92610)	-0.0788	-0.166
ZNF451_Q9Y4E5_150_TGTINCGTK (UniProt Q9Y4E5)	-0.067	-0.185
ZNF516_Q92618_165_GAEGSACAPGEAK (UniProt Q92618)	-0.0124	0.0512
ZFC3H1_O60293_1405_DNPEIWCHYLR (UniProt O60293)	0.0931	0.121
ZNF622_Q969S3_69_GSATYCTVCSK (UniProt Q969S3)	-0.0414	0.123
ZNF521_Q96K83_990_SLDTGNCR (UniProt Q96K83)	0.0503	0.113
ZNF451_Q9Y4E5_364+367_GYCPDCNQVFVDETSTQNHK (UniProt Q9Y4E5)	0.0418	-0.132
ZNF668_Q96K58_198_THAGLRPYSCER (UniProt Q96K58)	0.131	0.173
ZFP36L2_P47974_212_CHFIHNADER (UniProt P47974)	-0.166	-0.0526
ZFYVE19_Q96K21_104_AFCSGCLSFSAAVPR (UniProt Q96K21)	-0.0818	0.13
ZNF512B_Q96KM6_774_AHLASCSK (UniProt Q96KM6)	-0.0388	0.0104
ZFPM1_Q8IX07_147_QAEPSPALTLLLVDEACWLR (UniProt Q8IX07)	-0.097	0.238
ZNF638_Q14966_1933_AGFFCPICSLFYSGEK (UniProt Q14966)	-0.109	0.178
ZFYVE1_Q9HBF4_71_LKPGHVPYCDLCK (UniProt Q9HBF4)	-0.0815	0.168
ZNF330_Q9Y3S2_216_CGHETQETK (UniProt Q9Y3S2)	-0.00941	-0.143
ZGRF1_Q86YA3_2008_EIIILSCVR (UniProt Q86YA3)	-0.044	0.379
ZNF592_Q92610_265_ELGTCSSVPPR (UniProt Q92610)	0.00311	0.0487
ZNF24_P17028_189_HCDDDGRTENGALAPK (UniProt P17028)	-0.0706	-0.138
ZNF430_Q9H8G1_138_CGHEDLQLR (UniProt Q9H8G1)	0.00386	0.00587

Target	probe-labelled cysteine peptide fold change (10 µM)	probe-labelled cysteine peptide fold change (50 µM)
ZNF114_Q8NC26_51_NLAFIDWATPCK (UniProt Q8NC26)	-0.0959	0.0891
ZNF598_Q86UK7_44_CDHPVCYR (UniProt Q86UK7)	0.0786	0.0744
ZNF408_Q9H9D4_383_HAFVHTGHKPFLCTECGK (UniProt Q9H9D4)	0.107	0.293
ZNF330_Q9Y3S2_114_CLSTHACACPLTDAECVECER (UniProt Q9Y3S2)	0.143	-0.00405
ZFYVE19_Q96K21_435_CAGCDGDLFCAR (UniProt Q96K21)	-0.0741	-0.152
ZNF451_Q9Y4E5_741_CLQIMLDK (UniProt Q9Y4E5)	0.154	0.187
ZFR_Q96KR1_844+856_CAVSEAAIILNSCVEPK (UniProt Q96KR1)	0.0475	-0.0422
ZNF574_Q6ZN55_394+396_AHTPNPLHSCPCGK (UniProt Q6ZN55)	-0.0171	-0.0231
ZFX_P17010_664_CDMCDK (UniProt P17010)	0.0057	-0.0177
ZNF622_Q969S3_69+72_GSATYCTVCSK (UniProt Q969S3)	0.0869	0.123
ZMYM3_Q14202_436_LCSDSCFSK (UniProt Q14202)	-0.0848	-0.0935
ZNF646_O15015_1193_GCQTEASSERPFSCEVCGR (UniProt O15015)	-0.214	-0.0689
ZNF691_Q5VV52_176_CQESFR (UniProt Q5VV52)	0.0422	0.196
ZNF316_A6NFI3_95_EVLAEEECPALGTQER (UniProt A6NFI3)	0.155	-0.11
ZNF629_Q9UEG4_214_CFSWSSNLVQHQR (UniProt Q9UEG4)	-0.0363	0.199
ZFP91_Q96JP5_182_TGSLQLICK (UniProt Q96JP5)	-0.203	-0.257
ZNF274_Q96GC6_361_DCALSSTLEDTLQGGVQEVQDTVLK (UniProt Q96GC6)	0.0477	-0.0417
ZFAND6_Q6FIF0_181_YSDVHNCSYNYK (UniProt Q6FIF0)	-0.0968	-0.139
ZNF24_P17028_233_YGETCFPK (UniProt P17028)	-0.0914	-0.0598
ZFR_Q96KR1_384_CELCDVSCTGADAYAAHIR (UniProt Q96KR1)	0.222	0.0878
ZNF22_P17026_113_CDECGESFK (UniProt P17026)	-0.0931	0.00444
ZNF106_Q9H2Y7_1307_GNSGSEACTSSFLR (UniProt Q9H2Y7)	-0.265	-0.0979
ZNF280C_Q8ND82_734_STSTSEPTTGCSLK (UniProt Q8ND82)	-0.014	-0.213
ZMYND11_Q15326_73_DGLIVETLTVGCK (UniProt Q15326)	0.000505	0.0511
